Measurements reported in PubChem BioAssay AID652243 (Drosophila RNAi Screening Center, 2013)

- Assay: 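Fly regulators of androgen-dependent reporter output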 (primary screen)
- System: Drosophila S2R+ cells
- Knock-down reagent: long dsRNA against Drosophila genes
- Timing: 72 h (48 h, then 24 h hormone)
- Challenge: synthetic androgen R1881 at 10 nM for 24 h
- Measurement: 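Firefly light from an androgen-responsive reporter and Renilla control light per well, raw and unnormalised, for each of two replicates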
- Reading the numbers: firefly reporter light: higher = more light from androgen-responsive reporter; Renilla control light: higher = more constitutive control signal (cell number, transfection)
- Active means: 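Hit when the log firefly-to-Renilla ratio dropped or increased by a fixed fold versus the mean of GFP or LacZ controls across duplicate plates; lowering cut given as 1.5 and as 3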
- Calls: active = hit: reporter lowered or raised; inactive = no hit
The screen tested about 24,000 reagents; below is a random part of those with a known target gene and a result. Of all reagents, 246 (1%) got an active call. 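Plates not normalised; calls are printed but the firefly/Renilla ratio behind them is not deposited; fold cut for lowering reported inconsistently.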 Raw values vary from plate to plate and are shown uncorrected. Reagents against one gene are numbered here. Names joined by + are all predicted targets of the reagent. No sequences are given here. Not stated in the record: the amount of reagent.

Knock-down of pain #1 resulted in: firefly reporter light, replicate 1 = 1.73e5; firefly reporter light, replicate 2 = 1.36e5; Renilla control light, replicate 1 = 1.27e6; Renilla control light, replicate 2 = 9.00e5; inactive.
With knock-down of pain #2 the results were firefly reporter light, replicate 1 = 5.18e5; firefly reporter light, replicate 2 = 7.44e5; Renilla control light, replicate 1 = 8.84e5; Renilla control light, replicate 2 = 1.49e6; inactive.
Silencing of CG5641 came out at: firefly reporter light, replicate 1 = 57458; firefly reporter light, replicate 2 = 68415; Renilla control light, replicate 1 = 4.60e5; Renilla control light, replicate 2 = 5.23e5; inactive.
Depletion of CG13002 #1 came out at: firefly reporter light, replicate 1 = 6.37e5; firefly reporter light, replicate 2 = 5.03e5; Renilla control light, replicate 1 = 4.55e6; Renilla control light, replicate 2 = 2.97e6; inactive.
For CG13002 #2, the values are firefly reporter light, replicate 1 = 4.51e5; firefly reporter light, replicate 2 = 5.03e5; Renilla control light, replicate 1 = 9.52e5; Renilla control light, replicate 2 = 9.52e5; inactive.
For link #1, the entry reads firefly reporter light, replicate 1 = 94868; firefly reporter light, replicate 2 = 90876; Renilla control light, replicate 1 = 2.06e6; Renilla control light, replicate 2 = 2.06e6; inactive.
link #2 gave firefly reporter light, replicate 1 = 1.30e6; firefly reporter light, replicate 2 = 1.04e6; Renilla control light, replicate 1 = 2.18e6; Renilla control light, replicate 2 = 1.80e6; inactive.
link #3 scored firefly reporter light, replicate 1 = 5.91e5; firefly reporter light, replicate 2 = 6.30e5; Renilla control light, replicate 1 = 9.76e5; Renilla control light, replicate 2 = 1.76e6; inactive.
Silencing of Obp56g came out at: firefly reporter light, replicate 1 = 86770; firefly reporter light, replicate 2 = 1.11e5; Renilla control light, replicate 1 = 1.22e6; Renilla control light, replicate 2 = 1.27e6; inactive.
Against Pka-R1 #1 the deposit lists firefly reporter light, replicate 1 = 11014; firefly reporter light, replicate 2 = 12175; Renilla control light, replicate 1 = 2.67e5; Renilla control light, replicate 2 = 2.89e5; active.
For Pka-R1 #2 the deposit lists firefly reporter light, replicate 1 = 26448; firefly reporter light, replicate 2 = 79516; Renilla control light, replicate 1 = 6.06e5; Renilla control light, replicate 2 = 3.90e5; inactive.
After knock-down of Pka-R1 #3, the record shows firefly reporter light, replicate 1 = 1.17e6; firefly reporter light, replicate 2 = 9.37e5; Renilla control light, replicate 1 = 1.32e6; Renilla control light, replicate 2 = 9.10e5; inactive.
Against Pka-R1 #4 the deposit lists inactive.
Depletion of Pka-R1 #5 came out at: inactive.
With knock-down of CG10651, the screen gave firefly reporter light, replicate 1 = 92588; firefly reporter light, replicate 2 = 1.11e5; Renilla control light, replicate 1 = 9.70e5; Renilla control light, replicate 2 = 1.25e6; inactive.
CG8089 gave firefly reporter light, replicate 1 = 42440; firefly reporter light, replicate 2 = 66810; Renilla control light, replicate 1 = 9.45e5; Renilla control light, replicate 2 = 9.45e5; inactive.
With knock-down of PAN3 #1, the screen gave firefly reporter light, replicate 1 = 9.64e5; firefly reporter light, replicate 2 = 1.03e6; Renilla control light, replicate 1 = 2.04e6; Renilla control light, replicate 2 = 1.49e6; inactive.
Knock-down of PAN3 #2 gave: firefly reporter light, replicate 1 = 6.74e5; firefly reporter light, replicate 2 = 6.81e5; Renilla control light, replicate 1 = 9.81e5; Renilla control light, replicate 2 = 1.07e6; inactive.

2 of these entries, reformatted.
Target gene | reagent | firefly reporter light, replicate 1 | firefly reporter light, replicate 2 | Renilla control light, replicate 1 | Renilla control light, replicate 2 | call
Pka-R1 | 5 | – | – | – | – | inactive
CG10651 | 1 | 92588 | 1.11e5 | 9.70e5 | 1.25e6 | inactive

Further records follow:
Depletion of Roc1a came out at: firefly reporter light, replicate 1 = 3.57e5; firefly reporter light, replicate 2 = 3.65e5; Renilla control light, replicate 1 = 3.26e6; Renilla control light, replicate 2 = 2.96e6; inactive.
Depletion of CG12567 came out at: firefly reporter light, replicate 1 = 7.10e5; firefly reporter light, replicate 2 = 6.99e5; Renilla control light, replicate 1 = 1.05e6; Renilla control light, replicate 2 = 1.43e6; inactive.
Silencing of CG15554 came out at: firefly reporter light, replicate 1 = 1.62e5; firefly reporter light, replicate 2 = 1.77e5; Renilla control light, replicate 1 = 2.04e6; Renilla control light, replicate 2 = 1.96e6; inactive.
With knock-down of asRNA:CR42743 + CG34162, the screen gave firefly reporter light, replicate 1 = 7.85e5; firefly reporter light, replicate 2 = 7.53e5; Renilla control light, replicate 1 = 1.51e6; Renilla control light, replicate 2 = 9.83e5; inactive.
Against CG13474, the values are firefly reporter light, replicate 1 = 3.12e5; firefly reporter light, replicate 2 = 1.75e5; Renilla control light, replicate 1 = 2.44e6; Renilla control light, replicate 2 = 1.33e6; inactive.
Knock-down of CG14615 came out at: firefly reporter light, replicate 1 = 49579; firefly reporter light, replicate 2 = 98914; Renilla control light, replicate 1 = 2.14e5; Renilla control light, replicate 2 = 1.37e5; inactive.
With knock-down of CG10863 the results were firefly reporter light, replicate 1 = 1.00e6; firefly reporter light, replicate 2 = 9.07e5; Renilla control light, replicate 1 = 7.53e5; Renilla control light, replicate 2 = 7.86e5; inactive.
With knock-down of CG13907 #1, the screen gave firefly reporter light, replicate 1 = 7.25e5; firefly reporter light, replicate 2 = 6.78e5; Renilla control light, replicate 1 = 1.08e6; Renilla control light, replicate 2 = 5.82e5; inactive.
Silencing of CG13907 #2 resulted in: firefly reporter light, replicate 1 = 2.19e5; firefly reporter light, replicate 2 = 3.22e5; Renilla control light, replicate 1 = 1.06e6; Renilla control light, replicate 2 = 8.01e5; inactive.
